Experimental data as given in patent US20240207300A1, “COMBINATION THERAPIES INCLUDING MYT1 INHIBITORS” (Repare Therapeutics Inc., priority 2021, published 2024).
At least one structure is not confirmed: it was looked up by name or label, or the drawing left a doubt.

By UniProt entry, the sequences of proteins in these tests, tags left out. Where a name states a change or a piece, a line headed by the entry shows the natural chain unless it says otherwise.
UniProt Q99640: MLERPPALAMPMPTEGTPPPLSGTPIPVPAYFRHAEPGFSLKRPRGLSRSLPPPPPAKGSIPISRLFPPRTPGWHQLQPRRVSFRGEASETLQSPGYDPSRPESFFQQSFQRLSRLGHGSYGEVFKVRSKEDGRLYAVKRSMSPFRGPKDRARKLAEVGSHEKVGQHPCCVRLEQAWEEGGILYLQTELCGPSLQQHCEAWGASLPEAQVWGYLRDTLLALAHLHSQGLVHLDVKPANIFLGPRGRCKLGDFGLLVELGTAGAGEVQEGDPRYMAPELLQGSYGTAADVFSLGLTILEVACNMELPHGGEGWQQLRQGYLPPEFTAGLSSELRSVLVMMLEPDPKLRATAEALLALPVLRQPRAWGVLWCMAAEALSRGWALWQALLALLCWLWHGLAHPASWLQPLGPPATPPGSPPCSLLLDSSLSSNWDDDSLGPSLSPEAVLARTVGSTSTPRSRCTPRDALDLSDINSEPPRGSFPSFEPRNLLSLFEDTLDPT

Target: recombinant human Myt1 (Homo sapiens (Human), UniProt Q99640)
Assay: Recombinant human Myt1 kinase ADP-Glo enzymatic assay
Format: biochemical
Conditions: recombinant human Myt1 18 nM, ATP 10 μM
Procedure: Detection of Myt1 kinase activity utilized a recombinant human Myt1 kinase assay measuring the hydrolysis of ATP using a commercially available ADP-Glo Assay (ADP-Glo™ Kinase Assay from Promega, 10 000 assays, #V9102). […] After this, 5 μL of compounds (diluted in reaction buffer to 0.5% DMSO) was added to the microplate and the plate was spun briefly and incubated at 22° C. for 15 minutes. Ultra-Pure Adenosine Triphosphate (ATP) solution (ADP-Glo kit from Promega) was diluted in reaction buffer and 5 μL was added to the microplate, spun down briefly and incubated for 60 minutes at 30° C. […] After the 60-minute incubation, 15 μL of ADP-Glo reagent was added and the plate was spun briefly and sealed and incubated in the dark for 40 minutes at 22° C. […] Luminescence was read using the Envision (250 ms integration). The IC50 and the % max inhibition were calculated for each inhibitor compound tested.

Cc1ccc(O)c(C)c1-n1c(N)c(C(N)=O)c2nc(-c3ccc(Cl)cn3)cnc21 [Compound 49]
IC50: < 10 nM
